Experiment [1] addresses T1, P1-HNF4α (Hepatocyte Nuclear Factor 4 alpha from the P1 promoter, exon 1A), HNF4α in WT livers (mouse (endogenous in liver)) (UniProt P49698).
T1 sequence: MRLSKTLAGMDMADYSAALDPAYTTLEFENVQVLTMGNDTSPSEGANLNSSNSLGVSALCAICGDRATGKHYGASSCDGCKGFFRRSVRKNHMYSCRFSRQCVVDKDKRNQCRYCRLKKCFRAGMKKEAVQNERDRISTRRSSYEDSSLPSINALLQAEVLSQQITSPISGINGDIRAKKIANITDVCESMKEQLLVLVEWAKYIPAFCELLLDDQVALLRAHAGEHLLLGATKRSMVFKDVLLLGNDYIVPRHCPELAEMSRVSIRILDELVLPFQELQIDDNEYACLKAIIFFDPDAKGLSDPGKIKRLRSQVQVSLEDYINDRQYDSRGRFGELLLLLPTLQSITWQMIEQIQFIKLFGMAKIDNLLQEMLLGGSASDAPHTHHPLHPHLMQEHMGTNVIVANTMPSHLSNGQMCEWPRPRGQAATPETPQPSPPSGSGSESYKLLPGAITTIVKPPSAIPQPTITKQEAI
Kind of experiment: affinity purification with mass spectrometry; RIME: livers of WT and α7HMZ male mice (n=3) sacrificed at 10:30 (ZT3.5), crosslinked, IP'd with the P1/P2 HNF4α antibody, MudPIT; proteins at least 8-fold above IgG background; 8-fold difference between WT and α7HMZ taken as unique.

Amino acid sequences for entries named in this document (tags omitted).
UniProt Q9WTL8: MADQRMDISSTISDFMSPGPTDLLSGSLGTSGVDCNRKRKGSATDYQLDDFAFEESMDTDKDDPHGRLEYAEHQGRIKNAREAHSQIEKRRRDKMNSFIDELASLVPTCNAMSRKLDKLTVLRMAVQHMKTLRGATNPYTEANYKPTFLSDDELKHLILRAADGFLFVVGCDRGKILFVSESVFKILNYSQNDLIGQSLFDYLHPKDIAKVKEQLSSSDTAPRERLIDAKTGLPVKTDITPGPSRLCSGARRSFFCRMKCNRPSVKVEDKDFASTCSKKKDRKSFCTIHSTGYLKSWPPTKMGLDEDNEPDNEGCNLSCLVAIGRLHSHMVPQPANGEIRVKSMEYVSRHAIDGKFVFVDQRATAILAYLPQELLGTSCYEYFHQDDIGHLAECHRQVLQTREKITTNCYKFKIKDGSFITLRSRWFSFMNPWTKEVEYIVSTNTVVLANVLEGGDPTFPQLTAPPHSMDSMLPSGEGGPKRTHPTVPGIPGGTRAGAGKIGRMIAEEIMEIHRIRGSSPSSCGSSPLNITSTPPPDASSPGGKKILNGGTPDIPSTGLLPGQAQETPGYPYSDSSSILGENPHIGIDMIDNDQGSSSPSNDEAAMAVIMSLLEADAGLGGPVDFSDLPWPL
UniProt P22361: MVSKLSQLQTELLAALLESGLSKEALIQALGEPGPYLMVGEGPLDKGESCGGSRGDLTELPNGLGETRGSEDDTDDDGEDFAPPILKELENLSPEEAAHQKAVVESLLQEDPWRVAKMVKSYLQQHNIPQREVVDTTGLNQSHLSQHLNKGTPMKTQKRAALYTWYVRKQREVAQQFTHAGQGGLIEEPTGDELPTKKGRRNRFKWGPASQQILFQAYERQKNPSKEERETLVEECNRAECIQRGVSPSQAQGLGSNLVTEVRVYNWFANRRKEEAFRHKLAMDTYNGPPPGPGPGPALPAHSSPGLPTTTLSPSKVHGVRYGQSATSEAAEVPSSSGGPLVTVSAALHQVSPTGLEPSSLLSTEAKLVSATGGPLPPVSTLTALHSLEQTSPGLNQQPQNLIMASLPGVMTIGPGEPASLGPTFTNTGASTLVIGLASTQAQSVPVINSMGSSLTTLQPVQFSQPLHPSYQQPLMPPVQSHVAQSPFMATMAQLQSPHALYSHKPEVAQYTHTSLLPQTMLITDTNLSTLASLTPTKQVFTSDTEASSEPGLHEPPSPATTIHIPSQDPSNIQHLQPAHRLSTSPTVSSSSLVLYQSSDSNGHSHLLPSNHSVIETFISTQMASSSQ
UniProt Q60644: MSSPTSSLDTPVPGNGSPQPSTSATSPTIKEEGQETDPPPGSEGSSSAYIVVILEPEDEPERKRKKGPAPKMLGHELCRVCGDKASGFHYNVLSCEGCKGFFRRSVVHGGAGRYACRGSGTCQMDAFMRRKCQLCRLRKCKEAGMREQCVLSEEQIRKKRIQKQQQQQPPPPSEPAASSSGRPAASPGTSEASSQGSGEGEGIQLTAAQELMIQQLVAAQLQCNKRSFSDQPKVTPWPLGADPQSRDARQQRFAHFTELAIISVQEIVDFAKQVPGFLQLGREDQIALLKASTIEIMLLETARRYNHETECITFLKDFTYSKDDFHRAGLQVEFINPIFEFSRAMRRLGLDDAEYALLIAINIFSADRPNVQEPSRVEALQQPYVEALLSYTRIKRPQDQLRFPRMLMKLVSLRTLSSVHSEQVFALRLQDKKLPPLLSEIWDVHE
UniProt O35185: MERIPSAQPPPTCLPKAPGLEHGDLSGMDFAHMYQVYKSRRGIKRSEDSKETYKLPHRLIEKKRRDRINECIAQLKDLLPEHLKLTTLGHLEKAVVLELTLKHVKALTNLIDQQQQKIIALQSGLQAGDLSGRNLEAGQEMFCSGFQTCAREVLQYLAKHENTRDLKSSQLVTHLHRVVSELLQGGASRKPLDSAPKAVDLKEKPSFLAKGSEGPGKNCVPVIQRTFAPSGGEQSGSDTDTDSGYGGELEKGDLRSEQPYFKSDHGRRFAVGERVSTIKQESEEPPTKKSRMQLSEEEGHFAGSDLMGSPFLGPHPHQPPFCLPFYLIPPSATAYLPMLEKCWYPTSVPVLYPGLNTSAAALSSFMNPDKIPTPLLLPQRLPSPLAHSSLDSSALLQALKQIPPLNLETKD
UniProt P06537: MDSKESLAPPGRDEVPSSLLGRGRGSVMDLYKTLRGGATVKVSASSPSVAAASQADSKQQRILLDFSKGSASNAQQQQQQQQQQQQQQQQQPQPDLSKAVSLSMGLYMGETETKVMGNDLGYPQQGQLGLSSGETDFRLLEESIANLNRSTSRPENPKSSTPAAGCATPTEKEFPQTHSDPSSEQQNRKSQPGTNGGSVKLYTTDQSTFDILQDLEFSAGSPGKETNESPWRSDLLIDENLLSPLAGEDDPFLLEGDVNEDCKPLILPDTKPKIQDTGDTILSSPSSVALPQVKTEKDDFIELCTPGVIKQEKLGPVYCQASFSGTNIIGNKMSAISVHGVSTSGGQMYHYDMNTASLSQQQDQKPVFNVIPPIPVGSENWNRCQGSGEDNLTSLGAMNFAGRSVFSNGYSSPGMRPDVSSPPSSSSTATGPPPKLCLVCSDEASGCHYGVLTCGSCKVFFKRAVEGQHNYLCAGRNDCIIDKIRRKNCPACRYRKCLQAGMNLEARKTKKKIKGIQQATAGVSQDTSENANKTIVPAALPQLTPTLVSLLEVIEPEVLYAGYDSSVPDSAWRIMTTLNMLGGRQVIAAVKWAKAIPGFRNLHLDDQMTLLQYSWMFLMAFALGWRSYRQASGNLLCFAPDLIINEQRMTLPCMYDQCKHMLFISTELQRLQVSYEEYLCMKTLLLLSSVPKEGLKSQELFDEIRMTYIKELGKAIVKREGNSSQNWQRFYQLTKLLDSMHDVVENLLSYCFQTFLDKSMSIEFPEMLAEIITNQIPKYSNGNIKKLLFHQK

In experiment [2] the target is T1, P1-HNF4α (Hepatocyte Nuclear Factor 4 alpha from the P1 promoter, exon 1A), HNF4α in WT livers (mouse (endogenous in liver)). As to the kind of experiment: affinity purification with mass spectrometry; RIME: livers of WT and α7HMZ male mice (n=3) sacrificed at 20:30 (ZT13.5), crosslinked, IP'd with the P1/P2 HNF4α antibody, MudPIT; proteins at least 8-fold above IgG background; 8-fold difference between WT and α7HMZ taken as unique.

The target is the same in experiment [3]. Kind of experiment: affinity purification with mass spectrometry; RIME as in a1 and a2; the text does not tell at which time point (10:30 or 20:30) these pairs were found.
The target of experiment [4] is P2-HNF4α (Hepatocyte Nuclear Factor 4 alpha from exon 1D), HNF4α in α7HMZ livers (mouse (endogenous in liver)). Kind of experiment: affinity purification with mass spectrometry; RIME: livers of WT and α7HMZ male mice (n=3) sacrificed at 10:30 (ZT3.5), crosslinked, IP'd with the P1/P2 HNF4α antibody, MudPIT; proteins at least 8-fold above IgG background; 8-fold difference between WT and α7HMZ taken as unique.

The target of experiment [5] is T1, P1-HNF4α (Hepatocyte Nuclear Factor 4 alpha from the P1 promoter, exon 1A), HNF4α in WT livers (mouse (endogenous in liver)). Described as above. This is another data set of the same source.

No constants are given. Whether binding was seen depends on the method and setting. Binding seen in cells or lysates may run through a third protein. A yes stands for co-enrichment or nearness to the bait. Other partners may have been found. For part of these data: No binding means not detected with the bait.

Regarding “ARNTL (BMAL1) (from UniProt Q9WTL8 1-632)”, the binding result in experiment [1] and in experiment [2] was “no binding” in each case.
With HNF1A (from UniProt P22361 1-628), the binding entry in experiment [1] and in experiment [2] was “binds” each time.
Take NR1H2 (from UniProt Q60644 1-446): the binding entry in experiment [1] is “binds”.
Consider BHLHE40 (from UniProt O35185 1-411), for which the binding entry in experiment [1] and in experiment [2] was “binds” in each case.
In the case of NR3C1(GR) (from UniProt P06537 1-792), the binding result in experiment [3] is reported as “binds”.

B1: CLOCK (protein, UniProt O08785 1-855)
chain: MVFTVSCSKMSSIVDRDDSSIFDGLVEEDDKDKAKRVSRNKSEKKRRDQFNVLIKELGSMLPGNARKMDKSTVLQKSIDFLRKHKETTAQSDASEIRQDWKPTFLSNEEFTQLMLEALDGFFLAIMTDGSIIYVSESVTSLLEHLPSDLVDQSIFNFIPEGEHSEVYKILSTHLLESDSLTPEYLKSKNQLEFCCHMLRGTIDPKEPSTYEYVRFIGNFKSLTSVSTSTHNGFEGTIQRTHRPSYEDRVCFVATVRLATPQFIKEMCTVEEPNEEFTSRHSLEWKFLFLDHRAPPIIGYLPFEVLGTSGYDYYHVDDLENLAKCHEHLMQYGKGKSCYYRFLTKGQQWIWLQTHYYITYHQWNSRPEFIVCTHTVVSYAEVRAERRRELGIEESLPETAADKSQDSGSDNRINTVSLKEALERFDHSPTPSASSRSSRKSSHTAVSDPSSTPTKIPTDTSTPPRQHLPAHEKMTQRRSSFSSQSINSQSVGPSLTQPAMSQAANLPIPQGMSQFQFSAQLGAMQHLKDQLEQRTRMIEANIHRQQEELRKIQEQLQMVHGQGLQMFLQQSNPGLNFGSVQLSSGNSNIQQLTPVNMQGQVVPANQVQSGHISTGQHMIQQQTLQSTSTQQSQQSVMSGHSQQTSLPSQTPSTLTAPLYNTMVISQPAAGSMVQIPSSMPQNSTQSATVTTFTQDRQIRFSQGQQLVTKLVTAPVACGAVMVPSTMLMGQVVTAYPTFATQQQQAQTLSVTQQQQQQQQQPPQQQQQQQQSSQEQQLPSVQQPAQAQLGQPPQQFLQTSRLLHGNPSTQLILSAAFPLQQSTFPPSHHQQHQPQQQQQLPRHRTDSLTDPSKVQPQ
As for B1, the binding entry in experiment [4] was “binds”; in experiment [5], “no binding”; in experiment [2] it was “no binding”.

B2: NR2C1 (protein, UniProt Q505F1 1-590)
chain: MATIEEIAHQIIDQQMGEIVTEQQTGQKIQIVTALDHSTQGKQFILANHEGSTPGKVFLTTPDAAGVNQLFFTSPDLSAPHLQLLTEKSPDQGPNKVFDLCVVCGDKASGRHYGAITCEGCKGFFKRSIRKNLVYSCRGSKDCVINKHHRNRCQYCRLQRCIAFGMKQDSVQCERKPIEVSREKSSNCAASTEKIYIRKDLRSPLAATPTFVTDSETARSAGLLDSGMFVNIHPSGIKTEPAMLMAPDKAESCQGDLSTLASVVTSLANLGKAKDLSHCGGDMPVVQSLRNGDTSFGAFHHDIQTNGDVSRAFDTLAKALTPGESSACQSPEEGMEGSPHLIAGEPSFVEKEGPLLSESHVAFRLTMPSPMPEYLNVHYIGESASRLLFLSMHWALSIPSFQALGQENSISLVKAYWNELFTLGLAQCWQVMNVATILATFVNCLHSSLQQDKMSPERRKSLMEHIFKLQEFCNSMVKLCIDGHEYAYLKAIVLFSPDHPGLENMELIERFQEKAYVEFQDYITRTYPDDTYRLSRLLLRLPALRLMNATITEELFFKGLIGNVRIDSVIPHILKMEPADYNSQIIGHSL
On to B2, for which the results for the binding result in experiment [4] and in experiment [5] were “no binding” and “binds”, respectively.

B3: xenobiotic receptor PXR (NR1I2) (protein, UniProt O54915 1-431)
chain: MRPEESWSRVGLVQCEEADSALEEPINVEEEDGGLQICRVCGDKANGYHFNVMTCEGCKGFFRRAMKRNVRLRCPFRKGTCEITRKTRRQCQACRLRKCLESGMKKEMIMSDAAVEQRRALIKRKKREKIEAPPPGGQGLTEEQQALIQELMDAQMQTFDTTFSHFKDFRLPAVFHSGCELPEFLQASLLEDPATWSQIMKDRVPMKISLQLRGEDGSIWNYQPPSKSDGKEIIPLLPHLADVSTYMFKGVINFAKVISYFRDLPIEDQISLLKGATFEMCILRFNTMFDTETGTWECGRLAYCFEDPNGGFQKLLLDPLMKFHCMLKKLQLHKEEYVLMQAISLFSPDRPGVVQRSVVDQLQERFALTLKAYIECSRPYPAHRFLFLKIMAVLTELRSINAQQTQQLLRIQDSHPFATPLMQELFSSTDG
For B3, the binding entry in experiment [4] is recorded as “binds”.

B4: NFIL3 (protein, UniProt O08750 1-462)
chain: MQLRKMQTIKKEPAPLDPTSSSDKMLLLNSALAEVAEDLASGEDLLLNEGSMGKNKSSACRRKREFIPDEKKDAMYWEKRRKNNEAAKRSREKRRLNDLVLENKLIALGEENATLKAELLSLKLKFGLISSTAYAQEIQKLSNSTAVYFQDYQTSKAAVSSFVDEHEPAMVAGSCISVIKHSPQSSLSDVSEVSSVEHTQESPAQGGCRSPENKFPVIKQEPVELESFAREAREERGTYSTSIYQSYMGSSFSTYSHSPPLLQVHGSTSNSPRTSEADEGVVGKSSDGEDEQQVPKGPIHSPVELQRVHATVVKVPEVNPSALPHKLRIKAKAMQVKVEALDSEFEGMQKLSSPADAIAKRHFDLEKHGTSGMAHSSLPPFSVQVTNIQDWSLKSEHWHHKELSSKTQSSFKTGVVEVKDGGYKVSEAENLYLKQGIANLSAEVVSLKRFIATQPISASDSR
In the case of B4, the results for the binding entry in experiment [4] and in experiment [5] were “no binding” and “binds”, respectively.

B5: PPARA (protein, UniProt P23204 1-468)
chain: MVDTESPICPLSPLEADDLESPLSEEFLQEMGNIQEISQSIGEESSGSFGFADYQYLGSCPGSEGSVITDTLSPASSPSSVSCPVIPASTDESPGSALNIECRICGDKASGYHYGVHACEGCKGFFRRTIRLKLVYDKCDRSCKIQKKNRNKCQYCRFHKCLSVGMSHNAIRFGRMPRSEKAKLKAEILTCEHDLKDSETADLKSLGKRIHEAYLKNFNMNKVKARVILAGKTSNNPPFVIHDMETLCMAEKTLVAKMVANGVEDKEAEVRFFHCCQCMSVETVTELTEFAKAIPGFANLDLNDQVTLLKYGVYEAIFTMLSSLMNKDGMLIAYGNGFITREFLKNLRKPFCDIMEPKFDFAMKFNALELDDSDISLFVAAIICCGDRPGLLNIGYIEKLQEGIVHVLKLHLQSNHPDDTFLFPKLLQKMVDLRQLVTEHAQLVQVIKKTESDAALHPLLQEIYRDMY
For the molecule B5, the results for the binding result in experiment [4] and in experiment [5] were “no binding” and “binds”, respectively.

B6: NR2C2 (protein, UniProt P49117 1-596)
chain: MTSPSPRIQIISTDSAVASPQRIQIVTDQQTGQKIQIVTAVDASGSSKQQFILTSPDGAGTGKVILASPETSSAKQLIFTTSDNLVPGRIQIVTDSASVERLLGKADVQRPQVVEYCVVCGDKASGRHYGAVSCEGCKGFFKRSVRKNLTYSCRSSQDCIINKHHRNRCQFCRLKKCLEMGMKMESVQSERKPFDVQREKPSNCAASTEKIYIRKDLRSPLIATPTFVADKDGARQTGLLDPGMLVNIQQPLIREDGTVLLAADSKAETSQGALGTLANVVTSLANLSESLNNGDASEMQPEDQSASEITRAFDTLAKALNTTDSASPPSLADGIDASGGGSIHVISRDQSTPIIEVEGPLLSDTHVTFKLTMPSPMPEYLNVHYICESASRLLFLSMHWARSIPAFQALGQDCNTSLVRACWNELFTLGLAQCAQVMSLSTILAAIVNHLQNSIQEDKLSGDRIKQVMEHIWKLQEFCNSMAKLDIDGYEYAYLKAIVLFSPDHPGLTGTSQIEKFQEKAQMELQDYVQKTYSEDTYRLARILVRLPALRLMSSNITEELFFTGLIGNVSIDSIIPYILKMETAEYNGQITGASL
B6: the binding result is reported as “no binding” in experiment [4] and “binds” in experiment [5].

B7: CRY1 (protein, UniProt P97784 1-606)
chain: MGVNAVHWFRKGLRLHDNPALKECIQGADTIRCVYILDPWFAGSSNVGINRWRFLLQCLEDLDANLRKLNSRLFVIRGQPADVFPRLFKEWNITKLSIEYDSEPFGKERDAAIKKLATEAGVEVIVRISHTLYDLDKIIELNGGQPPLTYKRFQTLVSKMEPLEMPADTITSDVIGKCMTPLSDDHDEKYGVPSLEELGFDTDGLSSAVWPGGETEALTRLERHLERKAWVANFERPRMNANSLLASPTGLSPYLRFGCLSCRLFYFKLTDLYKKVKKNSSPPLSLYGQLLWREFFYTAATNNPRFDKMEGNPICVQIPWDKNPEALAKWAEGRTGFPWIDAIMTQLRQEGWIHHLARHAVACFLTRGDLWISWEEGMKVFEELLLDADWSINAGSWMWLSCSSFFQQFFHCYCPVGFGRRTDPNGDYIRRYLPVLRGFPAKYIYDPWNAPEGIQKVAKCLIGVNYPKPMVNHAEASRLNIERMKQIYQQLSRYRGLGLLASVPSNSNGNGGLMGYAPGENVPSCSSSGNGGLMGYAPGENVPSCSGGNCSQGSGILHYAHGDSQQTHSLKQGRSSAGTGLSSGKRPSQEEDAQSVGPKVQRQSSN
For B7, the binding entry in experiment [4] is “binds”.

The values above are taken from article PMC10726135.
